Results from PubChem BioAssay AID493014 (National Center for Advancing Translational Sciences (NCATS), 2011).
The list shows a part of the results. Shown are side measurements of this screen, not its main read-out; they come without a call. Most of these compounds were active or inconclusive in the main read-out, so they are no random draw. Potencies come from curve fits of mixed quality, noted in brackets.

Assay: qHTS Assay to Find Inhibitors of Chronic Active B-Cell Receptor Signaling
Settings: ABC-DLBCL IkBa-CBG/CBR reporter, luminescence ratio (green luciferase fused to IkBa over red control in TMD8 lymphoma cells), 4 h
In short: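 TMD8 ABC-DLBCL cells carrying doxycycline-inducible green luciferase fused to IkappaBalpha plus unfused red luciferase were exposed to compounds (up to 46 uM) for 4 hrs at 37C. Activity came from the overlap-corrected green/red luminescence ratio.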

[1] = measured here: CBR red luminescence, cell number

Structure (SMILES) | AC50 [1] | AC50 (measured here: IkBa-CBG green luminescence)
Cc1nn(Cc2ccc(C(=O)NN)o2)c(C)c1Cl | 10 µM [falling, partial curve] | 
CC(c1ccccc1)N1CCC(CNC(=S)Nc2cccc(Cl)c2)C1 (stereo not drawn) | 20 µM [falling, single point] | 
O=C(CSc1nnc(Cc2ccccc2)n1Cc1ccco1)NC1CCCC1 | 5.62 µM [rising, single point] | 
Cc1cc(Cl)ccc1NC(=S)Nc1ccccn1 | 7.31 µM [rising, full curve] | 
O=C(N/N=C/C=C/c1ccccc1)c1n[nH]c2c1CCC2 | 29.1 µM [falling, single point] | 
O=C(O)c1cccc(Cn2c(Cl)c(/C=N/NC(=O)c3cccc(O)c3)sc2=O)c1 | 0.501 µM [falling, partial curve, poor fit] | 
CSc1nc2ccc(S(=O)(=O)N3CCCCC3)cc2s1 | 6.51 µM [rising, full curve, poor fit] | 
COc1cccc(OCc2cc(C(=O)N3CCN(c4ccccc4O)CC3)no2)c1 | 17.8 µM [falling, single point] | 
Clc1ccc(-c2nnc3sc(-c4ccc(Br)o4)nn23)cc1 | 13 µM [falling, partial curve, poor fit] | 
CCc1ccc(OCCCC(=O)Nc2ccc(S(N)(=O)=O)cc2)cc1 | 35.5 µM [rising, partial curve, poor fit] | 
CC(=O)NS(=O)(=O)c1ccc(N=c2ssc3c2-c2cc(C)ccc2NC3(C)C)cc1 | 16.4 µM [falling, partial curve, poor fit] | 20.6 µM [rising, partial curve, poor fit]
CN1CCN(CCCNC(=O)c2ccc(Cn3c(=S)[nH]c4ccc(Br)cc4c3=O)cc2)CC1 | 0.178 µM [falling, full curve, poor fit] | 
Cc1ccc(C(=O)O/N=C2\CCSc3ccc(C)cc32)cc1 | 8.2 µM [rising, partial curve, poor fit] | 
CCCSc1cc(N)cc([N+](=O)[O-])c1 | 0.501 µM [rising, full curve, poor fit] | 
O=C(CSc1nc(=O)n(CCN2CCOCC2)c2c1CCC2)Nc1ccc(OC(F)(F)F)cc1 | 6.51 µM [falling, full curve, poor fit] | 
Cc1ccccc1C(=O)Nc1ccccc1C(=O)NCC(C)C | 12.6 µM [falling, partial curve, poor fit] | 
Cc1ccc2nc(NC(=O)CCNS(=O)(=O)c3cccs3)sc2c1 | 3.98 µM [falling, partial curve, poor fit] | 
CCN1CCN(c2cc(C)c3cc(NC(=S)N(C)Cc4ccccc4)ccc3n2)CC1 | 35.5 µM [falling, single point] | 
CC(=O)Nc1ccc(OCC=C(Cl)Cl)cc1 | 4.61 µM [rising, full curve, poor fit] | 
COc1ccc(N2C(=O)C(F)(F)C2c2ccccc2F)cc1 (stereo not drawn) | 35.5 µM [falling, single point] | 
COc1ccc(-c2cc(-c3ccccc3O)[nH]n2)cc1OC | 10 µM [falling, partial curve] | 

Structure (SMILES) | AC50 [1] | AC50 (measured here: IkBa-CBG green luminescence)
Cc1cc(C)cc(Cn2ncc(Cl)c(Cl)c2=O)c1 | 11.6 µM [falling, partial curve] | 
CC(C)Oc1ccc(C(CCNCc2ccc(O)cc2)c2ccccc2)cc1 (stereo not drawn) | 6.31 µM [rising, single point] | 
COc1ccccc1OCCSc1nnc(C)n1-c1ccccc1 | 0.0291 µM [falling, full curve, poor fit] | 
CCN1C(=NCC(C)C)N[C@@H](c2ccccc2)[C@H](C(=O)OC)[C@H]1C | 0.794 µM [falling, partial curve] | 
O=C(N/N=C/c1ccc(O)cc1)c1csc2c1CCCC2 | 9.2 µM [falling, partial curve] | 
Cc1ccc(/C=C2\SC(=S)N(CC3CCCO3)C2=O)o1 (stereo not drawn) | 35.5 µM [rising, single point] | 
Cc1cccc(Nc2nc(-c3ccc(O)cc3O)cs2)n1 | 11.2 µM [falling, partial curve, poor fit] | 
O=C(CSCC(=O)Nc1nccs1)Nc1ccccc1 | 12.6 µM [falling, partial curve] | 
Cc1ccc(C(C(=O)NC2CCCC2)N(Cc2ccco2)C(=O)CCC(=O)Nc2ccccn2)cc1 (stereo not drawn) | 22.4 µM [falling, single point] | 
Cc1ccc(C(=O)CCS(=O)(=O)c2ccc(F)cc2)cc1 | 25.1 µM [falling, single point] | 
CCC(=O)NC(c1ccco1)c1cc(Br)c2cccnc2c1O (stereo not drawn) | 29.1 µM [falling, single point] | 
CN(C)c1ccc(C(=O)C(=O)c2ccccc2)cc1 | 6.31 µM [rising, single point] | 
Cc1cccc2c1OCC/C2=N\NC(=O)COc1ccccc1 | 1.12 µM [rising, full curve, poor fit] | 
Fc1cccc(-c2cc3nc4c(c(N5CCC6(CC5)OCCO6)n3n2)CCCC4)c1 | 6.51 µM [rising, single point] | 
COc1ccc(-c2n[nH]c(=S)n2Cc2ccccc2)cc1OC | 0.1 µM [rising, full curve, poor fit] | 
CCOc1ccc(NCc2cccn2-c2nnc(N3CCC(C(=O)NCCCN4CCCCC4CC)CC3)s2)cc1 (stereo not drawn) | 14.1 µM [falling, partial curve] | 
COc1cccc(-c2cc(C(=O)N3CCN(C(=O)c4ccco4)CC3)[nH]n2)c1 | 8.91 µM [falling, partial curve, poor fit] | 
CN(CC(=O)Nc1ccc(F)cc1)C(=O)c1cc2c(s1)CCCCC2 | 16.4 µM [falling, single point] | 
Cc1oc(-c2ccc(F)cc2)nc1CN(Cc1ccccn1)CC1CCCO1 (stereo not drawn) | 5.62 µM [rising, single point] | 
Cc1nn(-c2ccccc2)c(Cl)c1C(=O)NCC1CCCO1 (stereo not drawn) | 4.61 µM [rising, partial curve, poor fit] | 
CN(C)c1ccc(-c2nc3n(n2)C(c2cccnc2)C2=C(CC(C)(C)CC2=O)N3)cc1 (stereo not drawn) | 7.94 µM [rising, partial curve] | 

Full records, looked up by structure:
CCOc1ccc(NCc2cccn2-c2nnc(N3CCC(C(=O)NCCCN4CCCCC4CC)CC3)s2)cc1 (stereo not drawn) as listed: AC50 [1]: 14.1 µM [falling, partial curve]
Cc1ccc(C(C(=O)NC2CCCC2)N(Cc2ccco2)C(=O)CCC(=O)Nc2ccccn2)cc1 (stereo not drawn) as listed: AC50 [1]: 22.4 µM [falling, single point]
CN(CC(=O)Nc1ccc(F)cc1)C(=O)c1cc2c(s1)CCCCC2 as listed: AC50 [1]: 16.4 µM [falling, single point]
Cc1ccc(/C=C2\SC(=S)N(CC3CCCO3)C2=O)o1 (stereo not drawn) as listed: AC50 [1]: 35.5 µM [rising, single point]
